Assay results reported in the supplement of paper PMC3741180, “A Novel High Throughput Biochemical Assay to Evaluate the HuR Protein-RNA Complex Formation” (PLoS ONE, 2013).
The other results are listed elsewhere or left out. This data set is noisy: repeats of one test often differ as much as different tests do. Peptide text beside a SMILES is read from it.

Amino acid sequences for entries named in this document (tags omitted).
UniProt Q15717, whole entry: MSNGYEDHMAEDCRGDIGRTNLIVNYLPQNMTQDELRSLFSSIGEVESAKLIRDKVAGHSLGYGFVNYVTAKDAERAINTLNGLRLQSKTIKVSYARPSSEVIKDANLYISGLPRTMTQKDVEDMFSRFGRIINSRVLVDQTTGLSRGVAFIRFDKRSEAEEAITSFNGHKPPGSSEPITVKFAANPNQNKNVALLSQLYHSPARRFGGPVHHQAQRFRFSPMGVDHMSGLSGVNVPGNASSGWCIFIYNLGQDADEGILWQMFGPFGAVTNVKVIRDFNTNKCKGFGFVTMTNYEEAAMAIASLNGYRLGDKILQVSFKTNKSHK

target: HuR (ELAVL1) - TNFalpha ARE RNA complex (UniProt Q15717); assay: AlphaScreen HuR-RNA complex signal Z-score relative to positive (Bi-TNF, DMSO) controls (Z-score (SD units of positive control)); higher = more complex signal; details: screen stage: primary screen; compound concentration: 25 nM

Row | SMILES | AlphaScreen HuR-RNA complex signal Z-score
1 | CC=CC1=C(C(=O)O)N2C(=O)[C@@H](NC(=O)[C@H](N)c3ccc(O)cc3)[C@H]2SC1 | -1.34
2 | COC(=O)c1c(C)cc(OC)cc1O | 2.15
3 | O=C1c2ccccc2C(=O)C1c1ccc(Br)cc1 | 0.973
4 | CC1(C)C(O[C@@H]2OC[C@@H](O)[C@H](O)[C@H]2O)CC[C@]23CC24CC[C@]2(C)[C@@H]([C@@]5(C)CC[C@@H](C(C)(C)O)O5)[C@H](O)C[C@@]2(C)C4C[C@@H](O[C@@H]2O[C@H](CO)[C@@H](O)[C@H](O)[C@H]2O)C13 (some centres undefined) | -1.07
5 | CC(=O)Oc1cc(-c2coc3cc(OC(C)=O)c(OC(C)=O)c(OC(C)=O)c3c2=O)cc(OC(C)=O)c1OC(C)=O | 1.46
6 | c1coc(CNc2ncnc3[nH]cnc23)c1 | 0.101
7 | CCOc1ccc2nc(S(N)(=O)=O)sc2c1 | 0.542
8 | O=C(O)c1cc(/N=N/c2ccc(S(=O)(=O)Nc3ccccn3)cc2)ccc1O | 27.6
9 | CC(=O)O[C@@H]1C=C[C@]2(C)C(C[C@@H](OC(C)=O)[C@]3(C)C4=CC(=O)O[C@H](c5ccoc5)[C@@]4(C)CCC23)C1(C)C (some centres undefined) | 1.83
10 | C/C(=C\C(=O)OCCCCCCCCC(=O)O)C[C@@H]1OC[C@H](C[C@@H]2O[C@H]2[C@@H](C)[C@H](C)O)[C@@H](O)[C@H]1O | 1.39
11 | N[C@@H](CSCSC[C@H](N)C(=O)O)C(=O)O | -2.27
12 | CN/C(=N\CCSCc1nc[nH]c1C)NC#N | 0.115
13 | CCCCC/C=C/CCC(=O)N[C@H]1[C@H](Oc2c3cc4cc2Oc2ccc(cc2Cl)[C@@H](O[C@@H]2O[C@H](CO)[C@@H](O)[C@H](O)[C@H]2NC(C)=O)[C@@H]2NC(=O)[C@H](NC(=O)[C@@H]4NC(=O)[C@H]4NC(=O)C(Cc5ccc(c(Cl)c5)O3)NC(=O)[C@H](N)c3ccc(O)c(c3)Oc3cc(O)cc4c3)c3ccc(O)c(c3)-c3c(OC4O[C@H](CO)[C@@H](O)[C@H](O)[C@@H]4O)cc(O)cc3[C@@H](C(=O)O)NC2=O)O[C@H](CO)[C@@H](O)[C@@H]1O (some centres undefined) [TEICOPLANIN [A(2-1) shown]] | -1
14 | Cc1ccnc(NS(=O)(=O)c2ccc(N)cc2)n1 | 40.1
15 | NC(=O)OCC(COC(N)=O)c1ccccc1 | 1.09
16 | O=c1c(O)c(-c2ccccc2)oc2cccc(O)c12 | 0.929
17 | NCCCC(O)(P(=O)(O)O)P(=O)(O)O | 2.89
18 | CNC[C@H](O)[C@@H](O)[C@H](O)[C@H](O)CO | -2.97
19 | Nc1ccc(S(=O)(=O)Nc2cnc3ccccc3n2)cc1 | 0.871
20 | CCCCNc1cc(C(=O)O)cc(S(N)(=O)=O)c1Oc1ccccc1 | 1.65
21 | O=c1c(O)c(-c2ccc(O)cc2)oc2ccccc12 | 0.972
22 | CC(=O)Oc1ccccc1C(=O)Oc1ccccc1C(=O)O | 1.71
23 | CC(C)C[C@H](N)C(=O)N[C@@H](C)C(=O)O (H-Leu-Ala-OH) | 2.34

Row | SMILES | AlphaScreen HuR-RNA complex signal Z-score
24 | CCOC(=O)c1c(C)cc(O)c(C=O)c1O | 1.39
25 | CCN(CC)CCOC(=O)c1ccc(N)cc1 | 3.85
26 | CC[C@H](C)C(=O)O[C@H]1C[C@@H](C)C=C2C=C[C@H](C)[C@H](CC[C@@H]3C[C@@H](O)CC(=O)O3)[C@H]21 | 1.46
27 | COc1cccc(-c2cc(=O)c3cc(OC)ccc3o2)c1 | 0.305
28 | COc1cc(C2Oc3cc([C@H]4Oc5cc(O)cc(O)c5C(=O)[C@@H]4O)ccc3OC2CO)ccc1O (some centres undefined) | 1.82
29 | O=c1cc(-c2ccccc2)oc2cc(O)c(O)c(O)c12 | 1.58
30 | CC(C)CCCC(C)N (centres undefined) | 3.91
31 | CC(=O)N[C@@H](CS)C(=O)O | 0.315
32 | CC(=O)O[C@H]1C[C@@]2(C)[C@@H](C[C@@H](O)[C@H]3[C@@]4(C)CC[C@@H](O)[C@@H](C)[C@@H]4CC[C@@]32C)/C1=C(\CCC=C(C)C)C(=O)O | -1.71
33 | OC(c1cc(C(F)(F)F)nc2c(C(F)(F)F)cccc12)C1CCCCN1 (centres undefined) | 0.602
34 | CNCCCC12CCC(c3ccccc31)c1ccccc12 | 6.21
35 | Cc1coc2c1C(=O)C(=O)c1c-2ccc2c1CCCC2(C)C | -0.752
36 | CCCCCC(=O)O[C@]1(C(C)=O)CC[C@H]2[C@@H]3CCC4=CC(=O)CC[C@]4(C)[C@H]3CC[C@@]21C | -0.995
37 | O=C(O[C@@H]1Cc2c(O)cc(O)cc2O[C@@H]1c1ccc(O)c(O)c1)c1cc(O)c(O)c(O)c1 | 1.75
38 | COc1ccc(C(=O)O)c(O)c1OC | 0.96
39 | CC(=O)O[C@H]1C[C@@H]2CC[C@@H]3[C@H](CC[C@@]4(C)[C@H]3C[C@H]([N+]3(C)CCCCC3)[C@@H]4OC(C)=O)[C@@]2(C)C[C@@H]1N1CCCCC1 | 1.1
40 | C[C@]12C=CC(=O)C=C1CC[C@H]1[C@@H]3C[C@@H](O)[C@](O)(C(=O)CO)[C@@]3(C)C[C@H](O)[C@@]12F | 2.96
41 | CC1(C)O[C@@H]2C[C@H]3[C@@H]4CCC5=CC(=O)CC[C@]5(C)[C@@]4(F)[C@@H](O)C[C@]3(C)[C@]2(C(=O)CCl)O1 | 1.57
42 | C[C@@H]1O[C@@H](OC[C@H]2O[C@@H](Oc3c(-c4ccc(OCCO)c(OCCO)c4)oc4cc(OCCO)cc(O)c4c3=O)[C@H](O)[C@@H](O)[C@@H]2O)[C@H](O)[C@H](O)[C@H]1O | 1.37
43 | CN1C(=O)OC(C)(C)C1=O | 2.41
44 | CC(=O)CCCCn1c(=O)c2c(ncn2C)n(C)c1=O | 0.627
45 | C=C1[C@@H]([C@@]2(C)C=CC(=O)C(C)(C)[C@@H]2CC(=O)OC)CC[C@@]2(C)[C@H](c3ccoc3)OC(=O)[C@H]3O[C@]132 | 1.66
46 | C[C@@H]1CC[C@@]2(OC1)O[C@H]1C[C@H]3[C@@H]4CC[C@H]5C[C@@H](O)CC[C@]5(C)[C@H]4CC(=O)[C@]3(C)[C@H]1[C@@H]2C | 1.16

Row | SMILES | AlphaScreen HuR-RNA complex signal Z-score
47 | O=c1c(-c2ccc(O)cc2)coc2cc(O)ccc12 | 2.59
48 | COc1c(C)c2c(c(O)c1C/C=C(\C)CCC(=O)O)C(=O)OC2 | -0.42
49 | O=C(O)c1ccc(S(=O)(=O)N(Cl)Cl)cc1 | -0.734
50 | O=C(Oc1ccccc1C(=O)O)c1ccccc1O | -6.08
51 | CCN1CCCC(OC(=O)C(c2ccccc2)c2ccccc2)C1 (centres undefined) | 0.0725
52 | Nc1ccc(C(=O)O)cc1 | 0.392
53 | CC(C)c1ccc2c(c1)CC[C@H]1[C@](C)(CN)CCC[C@]21C | 0.674
54 | CN(C)CCCSC(=N)N | 1.97
55 | NCCNCCNCCN | 1.65
56 | O=C(CCc1ccc(O)cc1)c1c(O)cc(O)cc1O[C@@H]1OC(CO)[C@@H](O)[C@@H](O)C1O (some centres undefined) | 0.975
57 | CCCC1O[C@@H]2C[C@H]3[C@@H]4CCC5=CC(=O)C=C[C@]5(C)[C@H]4[C@@H](O)C[C@]3(C)[C@]2(C(=O)CO)O1 (some centres undefined) | -0.582
58 | CC(C)c1c(O)ccc2c1CC[C@H]1C(C)(C)CCC[C@]21C | -0.671
59 | CC(C(=O)O)c1cccc(C(=O)c2ccccc2)c1 (centres undefined) | 1.62
60 | CCOC(=O)c1ncn2c1CN(C)C(=O)c1cc(F)ccc1-2 | 1.96
61 | O=NN(CCCl)C(=O)NCCCl | 2.77
62 | CC1(C)CC23C(=O)CCC(O)C2(C)CCC13 (centres undefined) | 1.23
63 | CCC(C(N)=O)c1ccccc1 (centres undefined) | 2.05
64 | CCOc1cc(CC(=O)N[C@@H](CC(C)C)c2ccccc2N2CCCCC2)ccc1C(=O)O | 2.38
65 | COc1cc2c(cc1OC)C1(O)C(=O)c3ccc(O)c(C(=O)O)c3OC1CO2 (centres undefined) | -4.87
66 | C#C[C@]1(O)CC[C@H]2[C@@H]3CCc4cc(O)ccc4[C@H]3CC[C@@]21C | -1.3
67 | CC(C)=CC1C(CO)C1(C)C (centres undefined) | 1.69
68 | Cc1occc(=O)c1O | 1.31
69 | NCCSSCCN | 2.67

Row | SMILES | AlphaScreen HuR-RNA complex signal Z-score
70 | CC1(C)C(=O)[C@H]2C[C@]3(O)C4=CC(=O)O[C@@H](c5ccoc5)[C@@]4(C)CCC3[C@](C)(C2=O)[C@H]1CC(=O)O (some centres undefined) | 0.483
71 | CCCCCN(CCCCC)C(=O)C(CCC(=O)O)NC(=O)c1ccc(Cl)c(Cl)c1 (centres undefined) | 1.89
72 | O=c1cc(-c2ccccc2O)oc2cc(O)ccc12 | -0.106
73 | CC(C)NCC(O)c1ccc(O)c(O)c1 (centres undefined) | -3.23
74 | C#CCCCCCCCCCCCC(O)CC(O)COC(C)=O (centres undefined) | 2.61
75 | CC(=O)OCC(=O)[C@@]1(O)[C@H](C)C[C@H]2[C@@H]3CCC4=CC(=O)C=C[C@]4(C)[C@@]3(F)[C@@H](O)C[C@@]21C | 1.67
76 | COc1ncnc(NS(=O)(=O)c2ccc(N)cc2)c1OC | 1.83
77 | CC1(C)C(=O)C=CC2(C)C1C=CC1(C)C2CCC2(C)C(c3ccoc3)OC(=O)C3OC312 (centres undefined) | 1.69
78 | COc1c(N2C[C@@H]3CCCN[C@@H]3C2)c(F)cc2c(=O)c(C(=O)O)cn(C3CC3)c12 | 1.77
79 | COc1ccc(C(=O)c2ccccc2)c(O)c1 | 6.29
80 | COc1ccc(C=CC(=O)O)cc1OC | 1.45
81 | CC1(C)O[C@@H]2C[C@H]3[C@@H]4CCC5=CC(=O)C=C[C@]5(C)[C@H]4[C@@H](O)C[C@]3(C)[C@]2(C(=O)CO)O1 | 1.36
82 | O=C(O)Cc1cc(I)c(Oc2cc(I)c(O)c(I)c2)c(I)c1 | 2.7
83 | CCN(CC)CCOc1ccc2c(c1)C(=O)c1cc(OCCN(CC)CC)ccc1-2 | 2.04
84 | CC[C@H]1OC(=O)C[C@@H](O)[C@H](C)[C@@H](O[C@@H]2O[C@H](C)[C@@H](O[C@H]3C[C@@](C)(O)[C@@H](O)[C@H](C)O3)[C@H](N(C)C)[C@H]2O)[C@@H](CC=O)C[C@@H](C)C(=O)/C=C/C(C)=C/[C@@H]1CO[C@@H]1O[C@H](C)[C@@H](O)[C@@H](OC)[C@H]1OC | -0.752
85 | COc1ccc2c(=O)c(-c3ccc(O)cc3)coc2c1 | 1.4
86 | CNS(=O)(=O)c1ccc(NC(=O)c2ccccc2C(=O)O)cc1 | 2.21
87 | COC(=O)CC1C(C)(C)C(OC(C)=O)[C@@H]2[C@@H](OC(C)=O)[C@]34O[C@@]2(O)[C@]1(C)C3CC[C@]1(C)C4=CC(=O)O[C@H]1c1ccoc1 (some centres undefined) | 1.6
88 | Nc1c2c(nc3ccccc13)CCCC2 | 5.03
89 | O=c1cc(-c2ccccc2)oc2cc(O)cc(O)c12 | -0.0595

Of the compounds above, these contain two or more sulfur atoms.
Row | SMILES | AlphaScreen HuR-RNA complex signal Z-score
7 | CCOc1ccc2nc(S(N)(=O)=O)sc2c1 | 0.542
11 | N[C@@H](CSCSC[C@H](N)C(=O)O)C(=O)O | -2.27
69 | NCCSSCCN | 2.67

Part of the list above, field by field:
C#CCCCCCCCCCCCC(O)CC(O)COC(C)=O (centres undefined)
  AlphaScreen HuR-RNA complex signal Z-score: 2.61
Nc1c2c(nc3ccccc13)CCCC2
  AlphaScreen HuR-RNA complex signal Z-score: 5.03
